PubChem BioAssay AID1508588 – Peter MacCallum Cancer Centre – 2020
In all, the deposit lists about 18,000 reagents; shown is a part drawn at random. In the full data, 790 (4.4%) got an active call. 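Calls rest on a combination of fold-change classes in drug and vehicle arms, not all shown here.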 A number with no mark means an inactive call. The numbers tell different reagents against one gene apart. Reagent sequences are not shown.

Screen: 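Which gene losses make BRAF-mutant melanoma cells more responsive to vemurafenib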 (primary screen)
Cells: human WM266.4 melanoma cells (BRAF V600 mutant)
Knock-down reagent: siRNA pool against human genes, 40 nM
Duration: 96 h from transfection to read-out
Conditions: vemurafenib 300 nM (about IC25), added 48 h after transfection, for 48 h; comparison arm got DMSO vehicle only
Measured: 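Cell gain (DAPI nuclei at end minus before drug, mean of two replicates) and medium lactate by absorbance per cell, both as ratio to non-targeting siRNA, also grouped into fold-change classes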
Reading the numbers: cell gain with vemurafenib: higher = more cell gain than with non-targeting siRNA; lactate per cell with vemurafenib: higher = more lactate made per cell
Call rule: 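a knock-down counts as enhancing when its fold-change classes with vehicle and with vemurafenib, taken together, show a stronger drug effect on cell gain or lactate per cell; exact class pairs not stated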
Meaning of the calls: active = enhances vemurafenib effect; inactive = no enhancement seen

no.	gene	reagent	cell gain with vemurafenib	lactate per cell with vemurafenib
1	RUNDC3B	1	0.36	0.76
2	KCNJ6	1	0.78	1.04
3	SLC34A1	1	0.63	1.25
4	MECOM	1	0.58	1.31
5	MECOM	2	0.86	0.7
6	SOX17	1	1.05	0.87
7	RAF1	1	0.56 (active)	0.64
8	GFRAL	1	0.56	0.31
9	ORMDL2	1	0.67	-0.33
10	LRRN4	1	0.9 (active)	0.34
11	ITGB3	1	0.5	0.62
12	SPATC1L	1	0.31	1.08
13	ABCF2	1	0.3	0.52
14	TMEM54	1	0.29	1.33
15	HDHD2	1	0.17 (active)	1.07
16	CEACAM6	1	0.31	0.85
17	HAL	1	0.47	0.88
18	OR2G6	1	0.53	1.82
19	NEU1	1	0.34	1.47
20	PPIL1	1	0.44	2
21	NCKAP1L	1	-0.07	0.82
22	LOC642678 (retired record)	1	1.02	0.51
23	GINS1	1	0.68	1.24
24	AKIRIN1	1	0.36	2.23
25	RAPH1	1	0.59	0.48
26	KCNC4	1	0.43	1.04
27	PLAC8L1	1	0.73	0.86
28	WIPF1	1	0.19	1.75
29	OLFM2	1	0.22	1.21
30	ADAMTS6	1	0.58	1.06
31	ABCB9	1	0.59	0.54
32	LSP1	1	1.06	0.66
33	SMAD4	1	0.81	0.98
34	UPK2	1	0.42	1.4
35	SPDYE1	1	0.71 (active)	0.45
36	CNOT12	1	0.37	1.38
37	RHOBTB1	1	0.36	1.16
38	ALKBH7	1	0.51	0.3
39	STIMATE	1	0.67	1.4
40	SERPINA11	1	0.62	0.96
41	TRIM15	1	0.95	0.79
42	LKAAEAR1	1	0.24	1.38
43	FAM53B	1	0.18	1.69
44	DDX43	1	0.94	0.65
45	KCNU1	1	0.74	1.08
46	KCNA10	1	0.68	0.52
47	PAPSS1	1	0.8	0.84
48	ZNF628	1	0.54	1.3
49	SLC19A2	1	0.64	1.01
50	EIF3G	1	0.2	0.91
51	LCT	1	0.65	0.99
52	E2F1	1	0.49	1.09
53	CPA3	1	0.8	1.14
54	ANKRD20A2P	1	0.93	1.52
55	TLR5	1	1.03	0.48
56	SRRM3	1	1.04	1.36
57	TARDBP	1	0.09	1.27
58	CRIP3	1	0.87	0.82
59	KRT24	1	0.86	0.66
60	TTC38	1	0.91	0.7
61	CTNNA1	1	0.27	0.82
62	KCNJ15	1	0.46	0.95
63	RTL5	1	0.68	0.98
64	ATL1	1	0.59	0.71
65	CD80	1	0.5	1.58
66	RBPJL	1	0.67	0.84
67	RPS25	1	-0.08	1.21
68	KCNK9	1	0.79	1.31
69	FAHD2B	1	0.66	1.08
70	ART5	1	0.38	2.02
71	TMPRSS11B	1	1.08	0.4
72	DDX19A	1	0.66	0.89
73	PCDHA1	1	0.47	1
74	HDDC2	1	1.14 (active)	0.38
75	BATF3	1	0.29	1.81
76	ST8SIA6	1	0.5	0.88
77	AGFG2	1	0.42	0.52
78	COQ10B	1	0.76	2.2
79	DYNC1LI1	1	0.72	1.18
80	SPATA19	1	0.46	1.83
81	CD40	1	0.79	1.36
82	DDHD1	1	1.01	0.66
83	NCEH1	1	0.98	1.02
84	PGBD1	1	0.56 (active)	0.46

5 consecutive reagents already listed, for reference:
no.	gene	reagent	cell gain with vemurafenib	lactate per cell with vemurafenib
61	CTNNA1	1	0.27	0.82
62	KCNJ15	1	0.46	0.95
63	RTL5	1	0.68	0.98
64	ATL1	1	0.59	0.71
65	CD80	1	0.5	1.58
